Measurements as given in paper PMC7496687.
These are yes or no findings as the source states them, for the method shown. Some binding calls cover weakened binding; strength is not graded here.

Chains of the proteins cited; added tags and fusions are not shown.
UniProt P70604: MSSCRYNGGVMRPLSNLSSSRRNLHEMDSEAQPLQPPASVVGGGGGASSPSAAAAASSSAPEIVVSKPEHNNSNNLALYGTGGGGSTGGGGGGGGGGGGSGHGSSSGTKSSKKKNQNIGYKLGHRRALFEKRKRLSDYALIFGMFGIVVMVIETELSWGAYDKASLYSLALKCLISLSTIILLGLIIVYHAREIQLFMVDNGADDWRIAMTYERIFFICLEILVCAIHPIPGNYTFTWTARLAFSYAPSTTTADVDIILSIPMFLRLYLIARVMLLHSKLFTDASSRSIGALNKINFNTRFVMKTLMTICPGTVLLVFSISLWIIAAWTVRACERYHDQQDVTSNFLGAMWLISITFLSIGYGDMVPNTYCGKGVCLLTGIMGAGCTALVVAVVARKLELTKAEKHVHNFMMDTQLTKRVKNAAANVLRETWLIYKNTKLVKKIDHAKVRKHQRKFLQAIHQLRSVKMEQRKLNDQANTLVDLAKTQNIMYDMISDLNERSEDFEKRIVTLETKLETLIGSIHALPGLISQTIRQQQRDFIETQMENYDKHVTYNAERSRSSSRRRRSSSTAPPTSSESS
UniProt P22002: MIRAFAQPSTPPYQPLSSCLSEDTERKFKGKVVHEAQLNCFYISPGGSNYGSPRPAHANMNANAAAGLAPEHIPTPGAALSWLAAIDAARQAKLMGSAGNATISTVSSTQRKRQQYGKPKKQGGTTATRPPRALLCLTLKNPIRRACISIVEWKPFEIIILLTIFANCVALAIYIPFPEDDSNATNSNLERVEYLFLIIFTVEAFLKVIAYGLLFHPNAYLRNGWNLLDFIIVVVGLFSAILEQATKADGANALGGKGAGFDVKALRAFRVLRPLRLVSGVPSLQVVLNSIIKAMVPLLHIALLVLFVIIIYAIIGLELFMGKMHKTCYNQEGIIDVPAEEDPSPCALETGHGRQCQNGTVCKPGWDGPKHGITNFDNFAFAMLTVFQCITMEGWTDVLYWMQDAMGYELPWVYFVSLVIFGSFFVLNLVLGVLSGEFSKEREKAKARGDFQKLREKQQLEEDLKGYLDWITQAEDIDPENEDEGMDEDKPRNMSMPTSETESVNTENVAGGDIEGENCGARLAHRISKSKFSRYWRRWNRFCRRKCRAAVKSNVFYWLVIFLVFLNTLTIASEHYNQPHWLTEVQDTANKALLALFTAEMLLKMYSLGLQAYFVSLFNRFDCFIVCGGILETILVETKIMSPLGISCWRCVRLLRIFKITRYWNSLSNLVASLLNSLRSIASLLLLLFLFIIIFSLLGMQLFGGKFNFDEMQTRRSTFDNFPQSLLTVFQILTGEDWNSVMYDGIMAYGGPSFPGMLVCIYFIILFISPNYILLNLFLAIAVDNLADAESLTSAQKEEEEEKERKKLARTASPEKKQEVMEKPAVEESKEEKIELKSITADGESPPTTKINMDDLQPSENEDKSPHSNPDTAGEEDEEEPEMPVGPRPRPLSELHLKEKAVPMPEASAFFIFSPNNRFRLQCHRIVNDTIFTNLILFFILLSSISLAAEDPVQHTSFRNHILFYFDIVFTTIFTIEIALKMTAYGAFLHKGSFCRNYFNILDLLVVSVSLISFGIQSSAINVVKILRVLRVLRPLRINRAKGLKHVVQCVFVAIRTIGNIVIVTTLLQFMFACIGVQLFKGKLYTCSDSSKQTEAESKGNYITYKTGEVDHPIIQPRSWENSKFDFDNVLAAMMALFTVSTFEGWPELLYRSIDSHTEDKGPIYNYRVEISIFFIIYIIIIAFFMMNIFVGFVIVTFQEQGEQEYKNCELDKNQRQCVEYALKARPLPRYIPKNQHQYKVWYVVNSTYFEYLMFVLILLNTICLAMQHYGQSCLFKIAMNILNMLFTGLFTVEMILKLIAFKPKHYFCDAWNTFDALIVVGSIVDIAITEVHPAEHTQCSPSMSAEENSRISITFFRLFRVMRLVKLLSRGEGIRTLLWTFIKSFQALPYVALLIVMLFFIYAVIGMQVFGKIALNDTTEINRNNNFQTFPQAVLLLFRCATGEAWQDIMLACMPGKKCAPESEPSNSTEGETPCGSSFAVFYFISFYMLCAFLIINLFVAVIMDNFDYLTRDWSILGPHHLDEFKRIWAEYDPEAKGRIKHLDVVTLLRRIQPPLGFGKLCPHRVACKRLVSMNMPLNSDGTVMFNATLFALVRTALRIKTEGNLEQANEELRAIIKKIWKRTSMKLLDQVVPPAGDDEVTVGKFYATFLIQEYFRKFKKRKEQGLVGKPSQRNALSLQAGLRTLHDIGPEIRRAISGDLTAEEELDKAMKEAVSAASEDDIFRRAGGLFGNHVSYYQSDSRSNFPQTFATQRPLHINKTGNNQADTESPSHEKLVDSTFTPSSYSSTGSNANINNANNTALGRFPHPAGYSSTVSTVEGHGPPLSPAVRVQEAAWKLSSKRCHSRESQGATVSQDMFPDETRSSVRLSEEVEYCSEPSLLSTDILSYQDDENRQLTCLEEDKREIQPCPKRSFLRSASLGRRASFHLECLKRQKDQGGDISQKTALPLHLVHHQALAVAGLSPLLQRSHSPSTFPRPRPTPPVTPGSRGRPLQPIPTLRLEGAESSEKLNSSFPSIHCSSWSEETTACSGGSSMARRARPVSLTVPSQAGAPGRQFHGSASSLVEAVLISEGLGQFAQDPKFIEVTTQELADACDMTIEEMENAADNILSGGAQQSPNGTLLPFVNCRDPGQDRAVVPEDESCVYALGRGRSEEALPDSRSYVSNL

Target: small-conductance Ca2+-activated K+ channel SK2 (rat (endogenous in rat ventricular myocytes)) (UniProt P70604)
Experiment: native gel or EMSA; blue native PAGE (NativePAGE 4-16% Bis-Tris) of the solubilised membrane fraction of freshly isolated Sham and TAB rat ventricular myocytes; blots probed for SK2, Cav1.2α1c and Na+/K+-ATPase (loading control)

Substance: Cav1.2α1c L-type Ca2+ channel (LTCC) subunit (from UniProt P22002 1-2169)
- binding: binds
